Assay results taken from PubChem BioAssay AID2685 (National Center for Advancing Translational Sciences (NCATS), 2010).
About 2,100 (0.66%) of roughly 320,000 compounds were called active. Inconclusive results, whose numbers are uncertain, are shown with a selection of clear calls. The call rests on the fitted dose curve; in most records, active means well fitted inhibition curve with a large enough effect in the signal ratio, with a control signal flat (not every such curve was filed as active); inconclusive means small, poorly fitted or top-dose-only effect, or effect the other way, or a change in a side signal; inactive means flat fitted curve, though single readings scatter; the % refers to the signal ratio. Potencies beside an inconclusive call are fits to weak or partial responses and may not hold up.

Test: qHTS Assay for Lipid Storage Modulators in Drosophila S3 Cells
Conditions: BODIPY lipid droplet fluorescence, 18-24 h, cells fed with added oleic acid; lipid storage change, negative = inhibition: at 46.1 µM (top of the series) unless noted
Outline: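 Drosophila S3 cells got compounds at several concentrations plus oleic acid (400 uM solution). Laser-scanning cytometry with 488 nm excitation read lipid droplets at 500-530 nm and cells at 575-640 nm. Percent activity was relative to 20 uM Triacsin C.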
On the % scale 0 is the no-effect control and ±100 the full control effect; potency means the concentration at half of the fitted maximal effect.

SMILES | lipid storage change, negative = inhibition | Potency
O=C(CCNS(=O)(=O)c1ccccc1)N1CCC(Cc2ccccc2)CC1 | inconclusive: 54.1% | 
O=C(c1ccc2[nH]c3c(c2c1)CCCC3)N1CCN(c2ccc(F)cc2)CC1 | inconclusive: 11.2% | 
Cc1ccc(-c2nc(COC(=O)C3=NN(c4ccccc4)C(=O)CC3)cs2)cc1 |  | inconclusive: 11.6 µM [activator, partial curve]
CCOCCCNC(=S)Nc1ccc(S(N)(=O)=O)cc1 | inconclusive: -90.7% | 
O=C(NCc1ccco1)C1CC(=O)N(c2cccc(Cl)c2)C1 (centres undefined) | inconclusive: 34% | 
Cc1ccccc1N1CC(C(=O)Nc2ccc(S(=O)(=O)N3CCOCC3)cc2)CC1=O (centres undefined) | inconclusive: -18.6% | 
COc1ccc(S(=O)(=O)N2CCCCCC2)cc1C(=O)N(C)Cc1ccc(C(C)(C)C)cc1 |  | inconclusive: 8.2 µM [falling, partial curve, poor fit]
COc1ccc(N2CCN(C(=O)CCNS(=O)(=O)c3ccccc3)CC2)cc1 | inconclusive: -12.2% | 
O=C(NC(CC(=O)N1CCN(c2ccc([N+](=O)[O-])cc2)CC1)c1ccccc1)c1ccccc1Cl (centres undefined) |  | inconclusive: 0.116 µM [activator, full curve, poor fit]
COCCCN(C(=O)c1cc(Cl)nc2ccccc12)c1c(N)n(Cc2ccccc2)c(=O)[nH]c1=O |  | inconclusive: 4.11 µM [activator, full curve, poor fit]
O=C(O)c1cccc(S(=O)(=O)N(Cc2ccccc2)c2ccc(Cl)cc2)c1 |  | inconclusive: 0.731 µM [falling, full curve, poor fit]
COc1cccc(/C=N/Nc2nc3ccccc3n3cnnc23)c1O |  | inconclusive: 18.4 µM [falling, single point]
O=[N+]([O-])c1ccc(CN2CCN(c3ccccc3)CC2)o1 |  | inconclusive: 29.1 µM [activator, single point]
CCC(=O)Nc1ccc(-c2nn3c(C)nnc3s2)cc1C |  | inconclusive: 3.26 µM [activator, partial curve]
Cc1ccc(N=Cc2cc3c(cc2O)OC(N)=C(C#N)C3c2ccccc2)cc1 (centres undefined) |  | inconclusive: 29.1 µM [cytotoxic, single point]
Cc1cccc(NC(=O)c2nc[nH]c2C(=O)N[C@@H](C)c2ccccc2)c1 |  | inconclusive: 29.1 µM [falling, single point]
C=CCc1cccc(/C=N/NC(=O)C(C)Nc2ccc(C)cc2)c1O (centres undefined) | inconclusive: 22.3% | 
O=C(CN1CCN(S(=O)(=O)c2ccc(Cl)s2)CC1)N1CCCCC1 | inconclusive: -60.3% | 
COc1cc(C(=O)N2CCSCC2)ccc1OC1CCN(C(C)=O)CC1 | inconclusive: -2.62% | 
O=[N+]([O-])c1cccc(-c2ccc(C(=S)N3CCN(c4ccc(F)cc4)CC3)o2)c1 | inconclusive: 51.2% | 
CCc1cccc(NC(=O)CCCN2C(=O)NC(C)(C)C2=O)c1 | inconclusive: 21.7% | 
CCC(C)(C)n1nnnc1C(c1cccs1)N1CCN(Cc2ccccc2)CC1 (centres undefined) | inconclusive: 24.7% | 
Cc1cc(C)c(C(=O)COC(=O)CNC(=O)c2ccccc2C)c(C)c1 |  | inconclusive: 8.2 µM [rising, partial curve, poor fit]
CC1(C)CC2CC(C)(CN2C(=O)COC(=O)c2cccc(O)c2)C1 (centres undefined) | inconclusive: -22.4% | 
COCCCNCCOCCSc1ccc(Cl)cc1 | inconclusive: 13.8% | 

SMILES | lipid storage change, negative = inhibition | Potency
COc1ccc(/C=N/NC(=O)c2nc(-c3ccccc3)cc(-c3ccccc3)n2)cc1OC | inconclusive: -17.2% | 
COc1ccc(Cn2nnnc2CN2CCC(c3nc4ccccc4s3)CC2)cc1 |  | inconclusive: 6.51 µM [rising, partial curve]
Nc1nc(-c2ccccc2)nn1C(=O)c1ccco1 | inactive: -0.905% | 
CCCSc1nc2c(c(=O)n(C)c(=O)n2C)n1Cc1ccc(C)cc1 | inconclusive: 32.7% | 
O=C(CCN1C(=O)[C@@H]2Cc3ccccc3CN2C1=O)NCc1ccccc1 | inconclusive: 74.1% | 
O=C(CCC1CCCC1)Nc1ccccc1-c1ccccc1 | inactive: 4.16% | 
CN(C(=O)CSc1nnc(-c2cccs2)n1C1CC1)C1CCS(=O)(=O)C1 (centres undefined) |  | inconclusive: 20.6 µM [activator, partial curve]
COC(=O)c1c(N2C(=O)CC(Sc3ncccc3C(=O)O)C2=O)sc(C)c1C (centres undefined) | inconclusive: 29.8% | 
Cc1ccc(C(=O)N2CCN(S(=O)(=O)c3cc(Br)ccc3Br)CC2)o1 |  | inconclusive: 18.4 µM [falling, single point]
Cc1ccc(OCC(=O)Nc2ccc(N3CCCC3)cc2)cc1C | inconclusive: -20.3% | 
CC(=O)NC(NC(=S)Nc1ccc(C)cc1C)C(Cl)(Cl)Cl (centres undefined) |  | inconclusive: 0.13 µM [falling, full curve]
Cc1cc2cc3c(cc2nc1SCC(=O)Nc1ccccc1)CCC3 | inconclusive: 25.2% | 
COc1ccc(C)cc1S(=O)(=O)NC1CCCCCC1 | inconclusive: -5.28% | 
CC(C)OC(=O)C1C(=O)CC(C)(O)C(C(=O)OC(C)C)C1c1cccc(O)c1 (centres undefined) | inconclusive: -13.8% | 
Cc1cc(N/N=C/c2ccccc2)nc(N)n1 |  | inconclusive: 0.116 µM [activator, full curve, poor fit]
C/C(=N\NC(=O)CCc1ccccc1)C1C(=O)c2ccccc2C1=O | inconclusive: -23.8% | 
CCCNc1c(NS(=O)(=O)c2ccc(C)c(C)c2)c(=O)oc2ccccc12 |  | active: 0.291 µM
Fc1ccc(Cn2nnnc2CN2CCc3ccccc3C2)cc1 | inconclusive: 6.63% | 
Cc1ccc(NC(=O)c2cccc(Oc3ccc([N+](=O)[O-])cc3)c2)c(C(=O)O)c1 |  | inconclusive: 5.8 µM [activator, single point]
Cc1ccc(C(c2c(C)[nH][nH]c2=O)c2c(C)[nH][nH]c2=O)cc1 | inconclusive: -11.1% | 
CC(NC(=O)COC(=O)CSc1ccc(F)cc1)c1ccc(F)cc1 (centres undefined) | inconclusive: 40.4% | 
CCCOc1ccc(C(=O)c2ccccc2C(=O)OC2CCOC2=O)cc1OCCC (centres undefined) | inconclusive: 12.1% | 
Cc1ccc(S(=O)(=O)NCC(=O)N(CC2CCCO2)C(C(=O)NC2CCCCC2)C(C)C)cc1 (centres undefined) | inconclusive: 3.37% | 
COc1ccccc1Nc1cc(C(=O)NCc2cccnc2)c2ccccc2n1 | inconclusive: 3.43% | 
CC(=O)Nc1ccc(NS(=O)(=O)c2ccc(Cl)c(C(=O)O)c2)cc1 | inconclusive: -18% | 

SMILES | lipid storage change, negative = inhibition | Potency
Cc1cc(-c2nn(C)c(=O)c3ccccc23)cc(C)c1O | inconclusive: 1.24% | 
NC(=O)c1nsc(C(=O)N(c2ccccc2)C(C(=O)NC2CCCCC2)c2ccc(O)cc2)c1N (centres undefined) | inconclusive: 135% | 
CC1(C)CC(=O)C(=Cc2cn(CCC#N)nc2-c2ccc(F)cc2)C(=O)C1 | inconclusive: -14.2% | 
CCN(CC)CCN(C(=O)c1ccc2ccccc2c1)c1nc2ccc(F)cc2s1 | inconclusive: 17.5% | 
CC(C)(C)OC(=O)NCCCC[C@@H](C(=O)N1CCN(C(=O)OC(C)(C)C)CC1)n1cc(CCC(=O)O)nn1 | inconclusive: -47.8% | 
CCOc1ccc(CN(C)C(C)C(=O)NCCc2ccc(F)cc2)cc1 (centres undefined) | inconclusive: -76.5% | 
O=S(=O)(c1ccc(Cl)cc1)N1CCCc2ccccc21 |  | inconclusive: 0.0065 µM [falling, full curve, poor fit]
Cc1ccc(NS(=O)(=O)c2cc([N+](=O)[O-])ccc2NNC(=S)Nc2cccc(Cl)c2)c(C)c1 | inconclusive: -55.3% | 
COc1cc(NS(=O)(=O)c2ccc(N/C=C(\C=O)c3nc4cc(Cl)ccc4o3)cc2)nc(OC)n1 | inconclusive: 8.83% | 
COc1cc(C)c(NC(=O)c2cc(C3CC3)nc3c2cnn3C(C)C)cc1OC | inconclusive: -41.5% | 
CCC(=O)N1CC2(C)CN(C(=O)CC)CC(C)(C1)C2 | inconclusive: -14.2% | 
CCOC(=O)N1CCC(NC(=O)CS(=O)Cc2nc(-c3ccccc3C)oc2C)CC1 (centres undefined) | inconclusive: 50.2% | 
Cc1cccc(NC(=S)N/C(=N/S(=O)(=O)c2ccccc2)c2ccccc2)c1 |  | inconclusive: 6.51 µM [activator, single point]
Cc1ccc(CN2C(=O)CCC2C(=O)NCC2CCCO2)cc1 (centres undefined) | inconclusive: -21.3% | 
COC(=O)c1ccc(Cn2nc(C)cc2C)cc1 |  | inconclusive: 6.51 µM [activator, single point]
COc1ccc(Cn2nnnc2C(C(C)C)N(Cc2ccco2)Cc2cccs2)cc1 (centres undefined) | inconclusive: -15.6% | 
CC(CCc1ccccc1)NC(=O)/C=C/c1ccccc1 (centres undefined) | inconclusive: -0.15% | 
CCc1ccc(NC2CC(=O)N(c3ccc(OC)cc3OC)C2=O)cc1 (centres undefined) |  | inconclusive: 11.6 µM [activator, partial curve]
Cc1ccc(O)c(C(=O)c2cc(C#N)c(=O)n(-c3c(C)n(C)n(-c4ccccc4)c3=O)c2)c1 |  | inconclusive: 23.1 µM [activator, partial curve]
c1ccc2c(c1)nc1n2C2(N3CCOCC3)CCCC2C1N1CCOCC1 (centres undefined) | inconclusive: 42.5% | 
CN(CCc1ccccn1)C(=O)CCc1nnc(CCCc2ccccc2)o1 |  | inconclusive: 29.1 µM [activator, single point]
CCOc1ccc(Br)cc1S(=O)(=O)NCc1ccc(S(N)(=O)=O)cc1 | inconclusive: 127% | 
COc1ccc(Nc2cc(C)nc3ncnn23)c(OC)c1 |  | inconclusive: 0.0231 µM [falling, full curve, poor fit]
Cc1ccc2nc3c(c(Nc4ccc5c(c4)OCCO5)c2c1)CCC3 | inconclusive: -42.6% | 

Five consecutive compounds out of the list so far:
SMILES | lipid storage change, negative = inhibition | Potency
Cc1ccc(NS(=O)(=O)c2cc([N+](=O)[O-])ccc2NNC(=S)Nc2cccc(Cl)c2)c(C)c1 | inconclusive: -55.3% | 
COc1cc(NS(=O)(=O)c2ccc(N/C=C(\C=O)c3nc4cc(Cl)ccc4o3)cc2)nc(OC)n1 | inconclusive: 8.83% | 
COc1cc(C)c(NC(=O)c2cc(C3CC3)nc3c2cnn3C(C)C)cc1OC | inconclusive: -41.5% | 
CCC(=O)N1CC2(C)CN(C(=O)CC)CC(C)(C1)C2 | inconclusive: -14.2% | 
CCOC(=O)N1CCC(NC(=O)CS(=O)Cc2nc(-c3ccccc3C)oc2C)CC1 (centres undefined) | inconclusive: 50.2% | 
